Some of the results follow.
B1: il10ra_site1_sap_11_mot_HHH_b1_03873_af2_000000091_0001_1_14_H_._456536b65d10dbd81ff7701267a43f31_0001_1_0001_0000800029_0000001_0_0001_af2pred_dldesign_0_af2pr … (protein)
chain: SLRDILERLLETRDPALVDEAEAAATAAAEADPNNLKAILTLQALRAYRLTGDPSIVEQALNIAE
B2: il10ra_site1_normal_mot_HHH_b1_00992_000000182_0001_23_40_H_._HHH_b1_08435_0001_0000300017_0000002_0 (protein)
chain: SSSSSDAEEYLELSLRFAKFLAENGDPEAARRILHAAIDIARKNGDEEIVQELEELLEELSSSSS
B3: il10ra_site1_normal_mot_HHH_b1_04514_000000156_0001_1_18_H_._HHH_b1_03241_0001_0000100007_0000001_0 (protein)
chain: SSSSYEEVKELIEEIIELAREGNPEEAEKVLRELERLAEELNNPAIRFVVRLLEEVIERQSSSSS
B4: il10ra_site1_sap_32_mot_HHH_b1_03262_af2_000000181_0001_43_57_H_._HHH_b1_07369_0001_0000100002_0000002_0_0001 (protein)
chain: SSSSSSDIERYVKMALRFAKRIQDEEARRFMLRAAEEMAKRANDEELHEEVEEVIRELSSSSSSS
B5: il10ra_site1_normal_mot_HHH_b2_04275_000000272_0001_20_36_H_._HHH_b1_04109_0001_0000400023_0000001_0 (protein)
chain: SSSSTEENRRIYELLRELARLVHEGDEEEFERVVEEIERLIEEAGNENLEAQLRFLERIFNSSSS
B6: il10ra_site1_normal_mot_HHH_b1_06789_af2_000000041_0001_1_20_H_._HHH_b1_02475_0001_0000600043_0000001_0_1_af2pred_0001 (protein)
chain: SSSSSTSAEHLVRLALLAVELAAKLDPEKAERALEIAELLARQANNEELEERVEELKKELSSSSS
B7: il10ra_site1_sap_18_mot_HHH_b1_06816_000000239_0001_1_19_H_._HHH_b1_05231_af2_0001_0000500018_0000001_0_0001_af2pred_0001 (protein)
chain: SSSSSEEVRQRAREIYEELKELLEEGDEERVQKLSHELAELALKGRDREAARLASEIIQLLSSSS
B8: il10ra_site1_sap_18_mot_HHH_b2_00622_af2_000000153_0001_40_57_H_._3cb01cd59277439e4f5c2b5f7f6b6153_0001_1_0001_0000400007_0000001_0_0001_af2pred_0001 (protein)
chain: SSSSDVHERVEELLEEARELAEEGDKEKVLQLLFEAARIAQENNNEELLREILEVAARLLSSSSS
B9: il10ra_site1_sap_20_mot_HHH_b2_01447_af2_000000258_0001_1_20_H_._HHH_b1_05841_af2_0001_0000300026_0000001_0_0001_af2pred_0001 (protein)
chain: SSSSSEEERRVVQLLLEALRAIREGDEEKVEELLEEARRLAEELNNPELELLVKLVEAQRESSSS
B10: il10ra_site1_sap_20_mot_HHH_b1_05056_000000217_0001_1_20_H_._HHH_b2_07317_0001_0000300031_0000001_0_0001 (protein)
chain: SSSSSDYEEEVEELLEEAERIEDPEEAARVLQKAVRLAIHAQDPELLRLVWEVVHKIAGSSSSSS
B11: il10ra_site1_normal_mot_HHH_b2_00345_af2_000000013_0001_42_56_H_._HHH_b2_01857_0001_0000400035_0000002_0 (protein)
chain: SSSSSDEEEEEVEELLEEAKHIEDHEKRIEILLEATHLALRAQDPELVQLVWEVFHRLIRSSSSS
B12: il10ra_site1_normal_mot_HHH_b1_08477_000000091_0001_40_57_H_._ems_3hM_3465_0001_0000500019_0000001_0 (protein)
chain: SNQEEQAVRFVERLARFAIERNDKRAIELVLQLARFVAESIDNPELSEEVEELIKELEEALKSSS
B13: il10ra_site1_sap_11_mot_HHH_b2_07006_000000108_0001_1_19_H_._HHH_b2_05318_0001_0000800037_0000002_0_0001 (protein)
chain: SSSSFHEVWELSRRIAEAIREGDEERVRELLEQLEELLEETGDPMVEYILKALRLLFEHTFSSSS
B14: il10ra_site1_normal_mot_6792f2186577ebd01aa11eb855ed7b57_0001_af2_000000149_0001_1_16_H_._HHH_b1_02093_af2_0001_0000100001_0000002_0 (protein)
chain: SSSSSDEEEVEELERRVEELEKEGDRERASRLLYEAAKIAARLGDRRLAQELIELFIRLSSSSSS
B15: il10ra_site1_normal_mot_HHH_b1_00999_000000080_0001_41_55_H_._HHH_b1_02466_af2_0001_0000400032_0000002_0 (protein)
chain: SSSSSDEEFAQLIQRAVQYAFRLGDQETLQRIWELARLYGEKGDPEVEEELERLLEELERRSSSS
B16: il10ra_site1_sap_31_mot_HHH_b2_07440_af2_000000021_0001_1_18_H_._HHH_b2_04449_0001_0000200017_0000001_0_0001 (protein)
chain: SSSSDVEEEVEELLEQVRELIERGDEHEAAQLLFKAMRLAYENRNEELWEKIIELAAKLQSSSSS
B17: il10ra_site1_sap_24_mot_HHH_b2_03434_000000017_0001_1_19_H_._HHH_b1_00954_af2_0001_0000300029_0000001_0_0001 (protein)
chain: SSSSSEENRELYELSREAMELLRNGNPEEAEKVLEEARELAEEAGNFVALFVIRHVLRVLRSSSS
B18: il10ra_site1_normal_mot_HHH_b2_03038_000000109_0001_1_20_H_._HHH_b1_06551_0001_0000300020_0000001_0 (protein)
chain: SSSSSEEHEELYELLREANELVRNNDEERAREILEEIEKLAEEVNDDIVRAILEFLERELESSSS
B19: il10ra_site1_normal_mot_8756ee2cf497b5429c717dfc0c0bcfd6_0001_000000186_0001_1_13_H_._HHH_b1_06747_0001_0000300034_0000001_0_af2pred_0001 (protein)
chain: SSSSSEEREELFELLRLVAELDKDGNPEEARRVLEEARELAEELGNLVAEAIIRFLEKHLSSSSS
B20: il10ra_site1_normal_mot_HHH_b2_02177_af2_000000045_0001_40_57_H_._ems_3hM_198_af2_0001_0000300014_0000001_0 (protein)
chain: SSDAREEVEKLYEELEEAAKKKDQELISEVAQKASRLALEEGDEELLHEIYRLFKEAIELLRSSS
B21: il10ra_site1_normal_mot_05ca327611f5605f0dd8494b449afcbf_0001_1_000000248_0001_35_51_H_._HHH_b2_03460_af2_0001_0000100003_0000002_0 (protein)
chain: SSSSDASQEVQELIERAFELAHEGDEEEAERLLEEAERLAEENNNEILKFAVRAAKRALNSSSSS
B22: il10ra_site1_normal_mot_HHH_b2_02116_af2_000000165_0001_41_55_H_._HHH_b1_05502_af2_0001_0000300011_0000001_0 (protein)
chain: SSSSDEEVRRRIAELYWRVAFLLRQGNPEEAKKVLEEMEELVEEYNDHQARAALRLAEQALSSSS
B23: il10ra_site1_sap_26_mot_HHH_b1_02637_000000294_0001_42_59_H_._HHH_b2_04435_0001_0000300037_0000001_0_0001 (protein)
chain: SSSSDEELKEVLELLRQAVRLALRGNPEKAEEVLEEAEELAREANDERALRMIEDMKRALKSSSS
B24: il10ra_site1_normal_mot_HHH_b2_05532_000000217_0001_1_18_H_._HHH_b2_05171_0001_0000200038_0000001_0_af2pred_0001 (protein)
chain: SSSSDEEVQEFVERVEEEAKELAERGDPREASELLVKASREAAEKGDPHLARYLAKLFARLSSSS
B25: il10ra_site1_sap_26_mot_HHH_b1_00317_af2_000000265_0001_23_40_H_._HHH_b1_05946_0001_0000100002_0000001_0_0001 (protein)
chain: SSSSDDVAREAVERMLEAAKQLDDEEYVRLALRFARASAEALGDPELQKLVEEVEEEIEERSSSS
B26: il10ra_site1_sap_23_mot_HHH_b2_07442_000000239_0001_40_54_H_._HHH_b1_01311_0001_0000400033_0000001_0_0001 (protein)
chain: SSSSDEEIREEVEELLEEAEKTSDVDEAYELLRRAIELASEGNDPELMRLVMEVSRRWLRSSSSS
B27: il10ra_site1_normal_mot_HHH_b2_06767_000000020_0001_41_56_H_._HHH_b2_08020_0001_0000100004_0000001_0 (protein)
chain: SSSSDEEEEEVLELLVRVARLLDEGDEEKAEEILREAEELAKEINDPRLELAVRFLKALASSSSS
B28: il10ra_site1_sap_19_mot_HHH_b1_03531_000000273_0001_41_54_H_._HHH_b1_03411_0001_0000300043_0000002_0_0001 (protein)
chain: SSSSTEAYEVARKAIEEARKLWEEGDDEQAREVLEEAIRIAEELGNWAAVFSLRHLLEALRSSSS
B29: il10ra_site1_sap_14_mot_HHH_b1_06819_af2_000000172_0001_23_38_H_._bfcbda098b113f8b03b409ccfd3d23fc_0001_af2_0001_0000600039_0000001_0_0001 (protein)
chain: SSSSDEEQRVVELLYRVVRLWAEGNPEEAEEVLKEARRLAEELGDEELERYVEIARSFVESSSSS
B30: il10ra_site1_sap_16_mot_6792f2186577ebd01aa11eb855ed7b57_0001_af2_000000149_0001_1_16_H_._ebd16f28eafe1420358629e7387fb1d1_0001_1_0001_0000600022_0000001_0_0001 … (protein)
chain: SSSSDEDERAVRRTLRFARFAFEEGDPEAAKFLLKAAKELAERAGNEELLKEIERLEEELKSSSS
B31: il10ra_site1_normal_mot_HHH_b2_02337_000000026_0001_38_52_H_._HHH_b1_05094_0001_0000200019_0000001_0 (protein)
chain: SSSSSDEEEREVEELIEEAEQIPDPEEAARVLQEAVRLAFRAKNKELLRLIWELVQKLHSSSSSS
B32: il10ra_site1_normal_mot_39a7b8d0c4c3fc04bafbda6ce6101d3a_0001_1_af2_000000014_0001_34_48_H_._HHH_b2_05946_0001_0000200011_0000001_0 (protein)
chain: SSSSSDEEEEEVEELLEEAKHVEDRQEADRLLLRALRIAIEGNNPELLQLVWRVVRELASSSSSS
B33: il10ra_site1_sap_22_mot_HHH_b2_07938_000000207_0001_42_56_H_._HHH_b1_08012_0001_0000300016_0000001_0_0001 (protein)
chain: SSSSSEVAREIYRLSREAMEYYREGDDEEARRLIEEAIELAEENNNRVQLVTLRYILKLLRSSSS
B34: il10ra_site1_sap_33_mot_HHH_b2_03631_af2_000000003_0001_42_56_H_._2afa63019087768a840a65be6aefc780_0001_1_0001_0000700020_0000001_0_0001 (protein)
chain: SSSSSDRQERLHARALVFFAKWARNPEAARIMLERAKELAEEVNDEELQREIEELLKELGSSSSS
B35: il10ra_site1_sap_18_mot_HHH_b2_04912_000000028_0001_1_20_H_._HHH_b1_05046_af2_0001_0000300024_0000002_0_0001_af2pred_0001 (protein)
chain: SSSSSSEESEELLEQLRRALEEGDEKLIIELAKEISRLARELNDKELLKELQKLLNKFLSSSSSS
B36: il10ra_site1_normal_mot_8756ee2cf497b5429c717dfc0c0bcfd6_0001_000000186_0001_1_13_H_._HHH_b2_05202_0001_0000100002_0000003_0_af2pred_0001 (protein)
chain: SSSSSSDVAQRIIELLRRAAKISDEEEVREILEEAEELAEEANNETARAIIEFLRKLLDSSSSSS
B37: il10ra_site1_sap_23_mot_HHH_b1_02637_000000294_0001_42_59_H_._HHH_b1_04025_0001_0000300021_0000002_0_0001 (protein)
chain: SSSSSDEEEERVEELLERAREIPDPDEAFKLIEEAIKIATESRNPELERLVMEFLREWLRSSSSS

biological target: il10ra, Q13651; assay: yeast display titration

Apparent Kd, inactive:
B1 no binding seen
B2 no binding seen
B3 > 786 nM
B4 no binding seen
B5 no binding seen
B6 no binding seen
B7 no binding seen
B8 no binding seen
B9 no binding seen
B10 no binding seen
B11 no binding seen
B12 no binding seen
B13 no binding seen
B14 no binding seen
B15 no binding seen
B16 no binding seen
B17 no binding seen
B18 no binding seen
B19 no binding seen
B20 no binding seen
B21 no binding seen
B22 no binding seen
B23 no binding seen
B24 no binding seen
B25 no binding seen
B26 no binding seen
B27 no binding seen
B28 no binding seen
B29 no binding seen
B30 no binding seen
B31 no binding seen
B32 no binding seen
B33 no binding seen
B34 no binding seen
B35 no binding seen
B36 no binding seen
B37 no binding seen

Taken from above for reference:
Apparent Kd, inactive:
B20 no binding seen
B21 no binding seen

Reference: PMC10163288
